Reference: the supplement of paper PMC12823440, “Inhibitors supercharge kinase turnover through native proteolytic circuits” (Nature, 2025)
Counter-ions that a name gives are not always drawn. The list shows a part of the results. The calls rarely recur for the same compound in another form.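 In K562 cells expressing nanoluciferase-fused kinases, luminescence was recorded at 4 h intervals between 2 and 18 h, normalized as percent of control with DMSO at 100% and a positive control at 0%. A significant (2 sigma) signal drop marks a time point as decreased. The authors' rule for a hit is not shown and takes in more than the number of time points.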

By UniProt entry, the sequences of proteins in these tests, tags left out. Where a name states a change or a piece, a line headed by the entry shows the natural chain unless it says otherwise.
UniProt P50613: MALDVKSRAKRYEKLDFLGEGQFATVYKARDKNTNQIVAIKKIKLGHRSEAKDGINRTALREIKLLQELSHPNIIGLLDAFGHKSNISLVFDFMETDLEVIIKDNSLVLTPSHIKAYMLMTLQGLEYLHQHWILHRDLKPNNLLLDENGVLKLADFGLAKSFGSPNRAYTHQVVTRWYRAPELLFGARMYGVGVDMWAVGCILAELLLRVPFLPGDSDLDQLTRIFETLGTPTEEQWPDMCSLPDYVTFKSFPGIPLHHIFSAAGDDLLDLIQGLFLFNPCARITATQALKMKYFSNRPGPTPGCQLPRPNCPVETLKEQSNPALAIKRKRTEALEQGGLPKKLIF
UniProt P50750, whole entry: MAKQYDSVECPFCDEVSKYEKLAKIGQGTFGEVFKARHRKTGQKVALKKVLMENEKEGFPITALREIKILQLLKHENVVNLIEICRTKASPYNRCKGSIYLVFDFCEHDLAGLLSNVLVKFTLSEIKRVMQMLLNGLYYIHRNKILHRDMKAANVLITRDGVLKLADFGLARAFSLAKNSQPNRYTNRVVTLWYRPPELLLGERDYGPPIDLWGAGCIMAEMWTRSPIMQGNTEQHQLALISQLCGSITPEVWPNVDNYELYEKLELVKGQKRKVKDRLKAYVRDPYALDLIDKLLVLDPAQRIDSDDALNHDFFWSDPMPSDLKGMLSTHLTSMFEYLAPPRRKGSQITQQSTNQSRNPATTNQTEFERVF
UniProt O96017, whole entry: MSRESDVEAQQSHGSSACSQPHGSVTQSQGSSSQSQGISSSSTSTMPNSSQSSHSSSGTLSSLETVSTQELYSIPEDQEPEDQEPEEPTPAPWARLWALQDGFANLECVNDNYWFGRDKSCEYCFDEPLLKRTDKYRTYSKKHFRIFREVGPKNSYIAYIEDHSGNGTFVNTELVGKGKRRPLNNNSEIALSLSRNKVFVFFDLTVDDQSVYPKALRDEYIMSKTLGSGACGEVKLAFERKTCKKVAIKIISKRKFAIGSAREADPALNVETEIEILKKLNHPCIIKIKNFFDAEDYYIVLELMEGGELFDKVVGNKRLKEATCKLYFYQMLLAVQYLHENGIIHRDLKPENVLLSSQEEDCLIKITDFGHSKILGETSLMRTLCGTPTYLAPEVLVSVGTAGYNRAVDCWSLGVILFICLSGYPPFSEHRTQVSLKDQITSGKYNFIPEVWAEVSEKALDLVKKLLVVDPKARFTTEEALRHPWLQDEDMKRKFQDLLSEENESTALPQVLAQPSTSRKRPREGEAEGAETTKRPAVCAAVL
UniProt P07333, whole entry: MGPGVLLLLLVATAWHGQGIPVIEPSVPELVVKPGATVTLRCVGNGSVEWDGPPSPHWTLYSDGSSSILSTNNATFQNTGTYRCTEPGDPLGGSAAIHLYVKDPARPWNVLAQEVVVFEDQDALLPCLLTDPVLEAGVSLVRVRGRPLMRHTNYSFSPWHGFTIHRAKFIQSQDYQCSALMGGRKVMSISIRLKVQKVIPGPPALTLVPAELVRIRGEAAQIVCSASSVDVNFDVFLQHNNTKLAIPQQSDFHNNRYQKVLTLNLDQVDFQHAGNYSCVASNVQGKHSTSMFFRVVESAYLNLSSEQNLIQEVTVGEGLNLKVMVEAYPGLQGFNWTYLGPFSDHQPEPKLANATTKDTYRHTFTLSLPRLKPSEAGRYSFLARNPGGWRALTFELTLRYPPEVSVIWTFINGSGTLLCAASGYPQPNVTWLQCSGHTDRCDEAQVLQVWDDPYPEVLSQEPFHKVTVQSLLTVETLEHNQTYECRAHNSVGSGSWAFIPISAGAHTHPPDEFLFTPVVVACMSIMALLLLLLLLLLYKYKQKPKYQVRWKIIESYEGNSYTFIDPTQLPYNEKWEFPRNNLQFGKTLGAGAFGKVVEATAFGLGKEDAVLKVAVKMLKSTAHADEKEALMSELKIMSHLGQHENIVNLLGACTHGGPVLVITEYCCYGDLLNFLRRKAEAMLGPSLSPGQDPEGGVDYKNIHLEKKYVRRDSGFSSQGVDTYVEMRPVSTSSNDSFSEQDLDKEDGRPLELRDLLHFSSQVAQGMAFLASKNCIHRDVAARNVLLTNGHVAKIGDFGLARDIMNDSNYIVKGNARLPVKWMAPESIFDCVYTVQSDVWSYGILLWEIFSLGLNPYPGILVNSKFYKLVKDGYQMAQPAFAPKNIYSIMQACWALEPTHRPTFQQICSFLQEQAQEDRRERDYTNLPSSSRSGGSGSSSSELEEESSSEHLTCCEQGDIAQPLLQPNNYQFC
UniProt P41240: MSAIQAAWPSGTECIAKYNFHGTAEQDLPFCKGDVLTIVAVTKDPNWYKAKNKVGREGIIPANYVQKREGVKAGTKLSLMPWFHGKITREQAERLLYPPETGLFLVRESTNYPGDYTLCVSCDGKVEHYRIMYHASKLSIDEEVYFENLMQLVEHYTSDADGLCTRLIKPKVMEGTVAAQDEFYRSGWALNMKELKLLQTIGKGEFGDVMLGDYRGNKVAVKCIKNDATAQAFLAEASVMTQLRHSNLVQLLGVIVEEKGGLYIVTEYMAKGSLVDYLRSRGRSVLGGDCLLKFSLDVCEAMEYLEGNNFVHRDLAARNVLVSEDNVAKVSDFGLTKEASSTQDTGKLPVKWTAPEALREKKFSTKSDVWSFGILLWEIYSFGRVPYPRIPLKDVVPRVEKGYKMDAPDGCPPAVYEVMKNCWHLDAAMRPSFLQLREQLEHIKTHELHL
UniProt P48729: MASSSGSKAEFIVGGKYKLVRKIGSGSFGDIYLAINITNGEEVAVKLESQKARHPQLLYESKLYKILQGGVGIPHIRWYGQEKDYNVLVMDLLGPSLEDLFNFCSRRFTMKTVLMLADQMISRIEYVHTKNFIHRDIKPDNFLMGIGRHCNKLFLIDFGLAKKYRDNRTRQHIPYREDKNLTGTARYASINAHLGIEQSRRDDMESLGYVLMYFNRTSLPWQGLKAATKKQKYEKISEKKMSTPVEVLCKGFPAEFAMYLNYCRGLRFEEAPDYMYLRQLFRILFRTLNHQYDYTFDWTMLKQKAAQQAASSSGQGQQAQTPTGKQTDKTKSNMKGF
UniProt P48730: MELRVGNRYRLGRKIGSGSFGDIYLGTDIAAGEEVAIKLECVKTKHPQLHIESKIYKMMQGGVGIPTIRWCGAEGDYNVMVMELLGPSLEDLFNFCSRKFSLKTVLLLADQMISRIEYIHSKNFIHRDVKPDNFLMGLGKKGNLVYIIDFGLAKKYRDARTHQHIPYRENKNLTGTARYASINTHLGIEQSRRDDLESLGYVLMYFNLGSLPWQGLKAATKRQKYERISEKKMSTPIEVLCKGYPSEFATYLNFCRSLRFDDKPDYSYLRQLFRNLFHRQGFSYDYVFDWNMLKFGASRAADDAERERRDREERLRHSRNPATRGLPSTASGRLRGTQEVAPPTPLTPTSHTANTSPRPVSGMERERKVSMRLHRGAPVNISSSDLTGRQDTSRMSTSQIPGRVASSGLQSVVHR
UniProt Q08345: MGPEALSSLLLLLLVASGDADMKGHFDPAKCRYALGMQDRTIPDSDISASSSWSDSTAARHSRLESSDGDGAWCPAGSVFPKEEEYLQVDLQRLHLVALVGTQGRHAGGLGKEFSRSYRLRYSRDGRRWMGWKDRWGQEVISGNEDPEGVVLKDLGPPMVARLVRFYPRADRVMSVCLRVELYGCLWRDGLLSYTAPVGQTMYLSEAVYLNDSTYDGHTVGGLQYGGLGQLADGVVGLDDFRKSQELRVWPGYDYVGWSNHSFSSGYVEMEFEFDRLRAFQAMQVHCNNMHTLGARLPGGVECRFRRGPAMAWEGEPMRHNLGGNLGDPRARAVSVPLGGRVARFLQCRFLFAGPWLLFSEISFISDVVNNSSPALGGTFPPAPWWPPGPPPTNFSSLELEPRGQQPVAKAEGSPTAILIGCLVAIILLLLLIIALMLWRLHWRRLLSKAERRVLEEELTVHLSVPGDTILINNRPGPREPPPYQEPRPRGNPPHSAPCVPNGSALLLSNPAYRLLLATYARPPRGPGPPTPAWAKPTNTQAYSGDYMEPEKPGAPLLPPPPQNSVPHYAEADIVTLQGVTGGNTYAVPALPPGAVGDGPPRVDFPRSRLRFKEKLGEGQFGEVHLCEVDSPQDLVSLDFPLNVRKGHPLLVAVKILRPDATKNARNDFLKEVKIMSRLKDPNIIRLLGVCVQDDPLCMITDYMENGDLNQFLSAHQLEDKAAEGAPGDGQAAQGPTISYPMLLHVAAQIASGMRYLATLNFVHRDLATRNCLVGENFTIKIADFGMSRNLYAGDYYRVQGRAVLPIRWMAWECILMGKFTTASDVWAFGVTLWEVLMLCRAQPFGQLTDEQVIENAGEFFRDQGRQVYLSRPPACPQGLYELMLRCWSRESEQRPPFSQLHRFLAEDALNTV
UniProt Q9Y463, whole entry, looked up: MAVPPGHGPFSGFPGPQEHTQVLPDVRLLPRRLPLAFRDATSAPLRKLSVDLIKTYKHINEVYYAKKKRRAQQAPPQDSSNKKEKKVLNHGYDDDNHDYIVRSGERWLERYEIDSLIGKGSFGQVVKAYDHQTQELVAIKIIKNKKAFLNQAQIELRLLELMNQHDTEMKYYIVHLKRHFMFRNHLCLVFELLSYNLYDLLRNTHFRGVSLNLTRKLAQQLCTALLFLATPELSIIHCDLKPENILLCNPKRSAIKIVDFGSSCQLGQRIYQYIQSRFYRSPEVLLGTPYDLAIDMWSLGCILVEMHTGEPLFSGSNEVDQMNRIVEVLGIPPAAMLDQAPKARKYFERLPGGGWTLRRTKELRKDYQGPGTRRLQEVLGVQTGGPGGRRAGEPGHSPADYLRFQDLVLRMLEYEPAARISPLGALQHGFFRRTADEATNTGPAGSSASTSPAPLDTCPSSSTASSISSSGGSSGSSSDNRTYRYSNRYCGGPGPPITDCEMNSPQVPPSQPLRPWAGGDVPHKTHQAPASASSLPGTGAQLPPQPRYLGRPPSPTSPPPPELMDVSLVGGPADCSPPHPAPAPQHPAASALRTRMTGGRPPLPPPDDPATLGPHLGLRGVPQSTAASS
UniProt Q92630: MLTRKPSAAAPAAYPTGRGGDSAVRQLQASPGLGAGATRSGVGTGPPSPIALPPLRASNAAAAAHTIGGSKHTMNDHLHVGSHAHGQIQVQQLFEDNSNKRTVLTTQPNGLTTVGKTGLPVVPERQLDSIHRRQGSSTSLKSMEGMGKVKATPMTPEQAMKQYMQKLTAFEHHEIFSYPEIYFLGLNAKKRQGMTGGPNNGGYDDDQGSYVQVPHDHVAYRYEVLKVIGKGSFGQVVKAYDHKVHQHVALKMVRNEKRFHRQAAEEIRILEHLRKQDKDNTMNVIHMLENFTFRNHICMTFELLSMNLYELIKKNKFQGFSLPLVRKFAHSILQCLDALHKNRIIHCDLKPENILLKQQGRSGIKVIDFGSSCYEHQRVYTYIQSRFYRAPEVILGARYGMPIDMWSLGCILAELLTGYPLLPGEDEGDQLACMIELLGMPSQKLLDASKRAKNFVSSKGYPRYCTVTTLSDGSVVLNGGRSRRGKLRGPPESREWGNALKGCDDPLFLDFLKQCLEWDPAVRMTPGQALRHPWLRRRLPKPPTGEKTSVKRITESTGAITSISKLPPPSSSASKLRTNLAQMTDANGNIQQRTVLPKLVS

Tests used:
Assay in all cases: kinase-Nluc reporter destabilization hit call (1 = scored as downregulated) (binary); higher = compound decreases kinase abundance
Conditions in all cases: K562, 2-18 h
[1] = molecular target: CDK7 (UniProt P50613)
[2] = molecular target: CDK9 (UniProt P50750)
[3] = molecular target: CHEK2 (UniProt O96017)
[4] = molecular target: CSF1R (UniProt P07333)
[5] = molecular target: CSK (UniProt P41240)
[6] = molecular target: CSNK1A1 (UniProt P48729)
[7] = molecular target: CSNK1D (UniProt P48730)
[8] = molecular target: DDR1 (UniProt Q08345)
[9] = molecular target: DYRK1B (UniProt Q9Y463)
[10] = molecular target: DYRK2 (UniProt Q92630)

Measured: kinase-Nluc reporter destabilization hit call

Cc1cccc(/C=N/Nc2cc(N3CCOCC3)nc(OCCc3ccccn3)n2)c1 [Apilimod (mesylate)]
inactive: [1]; 10 µM 0 | [2]; 10 µM 0 | [3]; 10 µM 0 | [4]; 10 µM 0 | [5]; 10 µM 0 | [6]; 10 µM 0 | [7]; 10 µM 0 | [8]; 10 µM 0 | [9]; 10 µM 0 | [10]; 10 µM 0

COc1cc2nccc(Nc3cc(OC)c(OC)c(OC)c3)c2cc1OC [GAK inhibitor 49 (hydrochloride)]
inactive: [1]; 10 µM 0 | [2]; 10 µM 0 | [3]; 10 µM 0 | [4]; 10 µM 0 | [5]; 10 µM 0 | [6]; 10 µM 0 | [7]; 10 µM 0 | [8]; 10 µM 0 | [9]; 10 µM 0 | [10]; 10 µM 0

CN1CCCN(C(=O)c2cccc(-c3ccc(/C=C4/C(=O)Nc5ccc(Cl)cc54)o3)c2)CC1 [CX-6258 (hydrochloride hydrate)]
inactive: [1]; 2.5 µM 0 | [2]; 2.5 µM 0 | [3]; 2.5 µM 0 | [4]; 2.5 µM 0 | [5]; 2.5 µM 0 | [6]; 2.5 µM 0 | [7]; 2.5 µM 0 | [8]; 2.5 µM 0 | [9]; 2.5 µM 0 | [10]; 2.5 µM 0

Cc1nc2ccc(-n3c(-c4nonc4N)nc4cnccc43)cc2[nH]1
inactive: [1]; 10 µM 0 | [2]; 10 µM 0 | [3]; 10 µM 0 | [4]; 10 µM 0 | [5]; 10 µM 0 | [6]; 10 µM 0 | [7]; 10 µM 0 | [8]; 10 µM 0 | [9]; 10 µM 0 | [10]; 10 µM 0

c1cc(-c2cnn3cc(-c4ccc(OCCN5CCCCC5)cc4)cnc23)ccn1 [Dorsomorphin (dihydrochloride)]
inactive: [1]; 2.5 µM 0 | [2]; 2.5 µM 0 | [3]; 2.5 µM 0 | [4]; 2.5 µM 0 | [5]; 2.5 µM 0 | [6]; 2.5 µM 0 | [7]; 2.5 µM 0 | [8]; 2.5 µM 0 | [9]; 2.5 µM 0 | [10]; 2.5 µM 0

O=C1Nc2ccccc2/C1=C/c1ccccn1 [(E/Z)-GSK-3β inhibitor 1]
inactive: [1]; 10 µM 0 | [2]; 10 µM 0 | [3]; 10 µM 0 | [4]; 10 µM 0 | [5]; 10 µM 0 | [6]; 10 µM 0 | [7]; 10 µM 0 | [8]; 10 µM 0 | [9]; 10 µM 0 | [10]; 10 µM 0

COc1ccc2c(c1)C(c1ccc(F)cc1)=C(CN1CCCC1)CO2 [AX-024 hydrochloride]
inactive: [1]; 10 µM 0 | [2]; 10 µM 0 | [3]; 10 µM 0 | [4]; 10 µM 0 | [5]; 10 µM 0 | [6]; 10 µM 0 | [7]; 10 µM 0 | [8]; 10 µM 0 | [9]; 10 µM 0 | [10]; 10 µM 0

CCc1nc(C(N)=O)c(Nc2ccc(N3CCC(N4CCN(C)CC4)CC3)c(OC)c2)nc1NC1CCOCC1 [Gilteritinib]
inactive: [1]; 2 µM 0 | [2]; 2 µM 0 | [3]; 2 µM 0 | [4]; 2 µM 0 | [5]; 2 µM 0 | [6]; 2 µM 0 | [7]; 2 µM 0 | [8]; 2 µM 0 | [9]; 2 µM 0 | [10]; 2 µM 0

COc1ccc(S(=O)(=O)Nc2ccccc2CN(C)C/C=C/c2ccc(Cl)cc2)cc1 [KN-92 (phosphate)]
inactive: [1]; 2.5 µM 0 | [2]; 2.5 µM 0 | [3]; 2.5 µM 0 | [4]; 2.5 µM 0 | [5]; 2.5 µM 0 | [6]; 2.5 µM 0 | [7]; 2.5 µM 0 | [8]; 2.5 µM 0 | [9]; 2.5 µM 0 | [10]; 2.5 µM 0

Cc1[nH]c(/C=C2\C(=O)Nc3ccc(F)cc32)c(C)c1C(=O)NCCN1CCCC1 [Toceranib]
inactive: [1]; 2 µM 0 | [2]; 2 µM 0 | [3]; 2 µM 0 | [4]; 2 µM 0 | [5]; 2 µM 0 | [6]; 2 µM 0 | [7]; 2 µM 0 | [8]; 2 µM 0 | [9]; 2 µM 0 | [10]; 2 µM 0

CCS(=O)(=O)N1CCN(c2ccc(Nc3ncc(C(N)=O)c(NC4CC4)n3)cc2)CC1 [Cerdulatinib (hydrochloride)]
active: [1]; 10 µM 1
inactive: [2]; 10 µM 0 | [3]; 10 µM 0 | [4]; 10 µM 0 | [5]; 10 µM 0 | [6]; 10 µM 0 | [7]; 10 µM 0 | [8]; 10 µM 0 | [9]; 10 µM 0 | [10]; 10 µM 0

C#Cc1cccc(Nc2ncnc3cc(OCCOC)c(OCCOC)cc23)c1 [Erlotinib (Hydrochloride)]
inactive: [1]; 10 µM 0 | [2]; 10 µM 0 | [3]; 10 µM 0 | [4]; 10 µM 0 | [5]; 10 µM 0 | [6]; 10 µM 0 | [7]; 10 µM 0 | [8]; 10 µM 0 | [9]; 10 µM 0 | [10]; 10 µM 0

CNC(=O)c1cc(Oc2ccc(NC(=O)Nc3ccc(Cl)c(C(F)(F)F)c3)c(F)c2)ccn1 [Regorafenib]
inactive: [1]; 2.5 µM 0 | [2]; 2.5 µM 0 | [3]; 2.5 µM 0 | [4]; 2.5 µM 0 | [5]; 2.5 µM 0 | [6]; 2.5 µM 0 | [7]; 2.5 µM 0 | [8]; 2.5 µM 0 | [9]; 2.5 µM 0 | [10]; 2.5 µM 0

Two successive entries already listed:
COc1ccc2c(c1)C(c1ccc(F)cc1)=C(CN1CCCC1)CO2 [AX-024 hydrochloride]
inactive: [1]; 10 µM 0 | [2]; 10 µM 0 | [3]; 10 µM 0 | [4]; 10 µM 0 | [5]; 10 µM 0 | [6]; 10 µM 0 | [7]; 10 µM 0 | [8]; 10 µM 0 | [9]; 10 µM 0 | [10]; 10 µM 0

CCc1nc(C(N)=O)c(Nc2ccc(N3CCC(N4CCN(C)CC4)CC3)c(OC)c2)nc1NC1CCOCC1 [Gilteritinib]
inactive: [1]; 2 µM 0 | [2]; 2 µM 0 | [3]; 2 µM 0 | [4]; 2 µM 0 | [5]; 2 µM 0 | [6]; 2 µM 0 | [7]; 2 µM 0 | [8]; 2 µM 0 | [9]; 2 µM 0 | [10]; 2 µM 0

Continuation:

Cn1ncc(Cl)c1-c1cc(C(=O)N[C@H](CN)Cc2cccc(F)c2)sc1Cl [Afuresertib (hydrochloride)]
inactive: [1]; 10 µM 0 | [2]; 10 µM 0 | [3]; 10 µM 0 | [4]; 10 µM 0 | [5]; 10 µM 0 | [6]; 10 µM 0 | [7]; 10 µM 0 | [8]; 10 µM 0 | [9]; 10 µM 0 | [10]; 10 µM 0

O=C(O)c1ccc2c(c1)nc(Nc1cccc(Cl)c1)c1ccncc12 [Silmitasertib (sodium salt)]
inactive: [1]; 10 µM 0 | [2]; 10 µM 0 | [3]; 10 µM 0 | [4]; 10 µM 0 | [5]; 10 µM 0 | [6]; 10 µM 0 | [7]; 10 µM 0 | [8]; 10 µM 0 | [9]; 10 µM 0 | [10]; 10 µM 0

Cc1[nH]c(/C=C2\C(=O)Nc3ccc(F)cc32)c(C)c1C(=O)NCCN1CCCC1 [Toceranib (phosphate)]
inactive: [1]; 2 µM 0 | [2]; 2 µM 0 | [3]; 2 µM 0 | [4]; 2 µM 0 | [5]; 2 µM 0 | [6]; 2 µM 0 | [7]; 2 µM 0 | [8]; 2 µM 0 | [9]; 2 µM 0 | [10]; 2 µM 0

Clc1ccc(C2(c3ccc(-c4cn[nH]c4)cc3)CCNCC2)cc1
inactive: [1]; 10 µM 0 | [2]; 10 µM 0 | [3]; 10 µM 0 | [4]; 10 µM 0 | [5]; 10 µM 0 | [6]; 10 µM 0 | [7]; 10 µM 0 | [8]; 10 µM 0 | [9]; 10 µM 0 | [10]; 10 µM 0

Cc1ccc(NC(=O)c2ccc(CN3CCN(C)CC3)cc2)cc1Nc1nc(-c2cccnc2)cs1 [Masitinib (mesylate)]
inactive: [1]; 2.5 µM 0 | [2]; 2.5 µM 0 | [3]; 2.5 µM 0 | [4]; 2.5 µM 0 | [5]; 2.5 µM 0 | [6]; 2.5 µM 0 | [7]; 2.5 µM 0 | [8]; 2.5 µM 0 | [9]; 2.5 µM 0 | [10]; 2.5 µM 0

COc1ccc(S(=O)(=O)N(CCO)c2ccccc2CN(C)C/C=C/c2ccc(Cl)cc2)cc1 [KN-93 (hydrochloride)]
inactive: [1]; 2.5 µM 0 | [2]; 2.5 µM 0 | [3]; 2.5 µM 0 | [4]; 2.5 µM 0 | [5]; 2.5 µM 0 | [6]; 2.5 µM 0 | [7]; 2.5 µM 0 | [8]; 2.5 µM 0 | [9]; 2.5 µM 0 | [10]; 2.5 µM 0

CC(C)Oc1ccc(-c2nn([C@@H](C)c3oc4ccc(F)cc4c(=O)c3-c3cccc(F)c3)c3ncnc(N)c23)cc1F [Umbralisib (hydrochloride)]
inactive: [1]; 2.5 µM 0 | [2]; 2.5 µM 0 | [3]; 2.5 µM 0 | [4]; 2.5 µM 0 | [5]; 2.5 µM 0 | [6]; 2.5 µM 0 | [7]; 2.5 µM 0 | [8]; 2.5 µM 0 | [9]; 2.5 µM 0 | [10]; 2.5 µM 0

COc1cc2c(-c3cnn4cc(N5CCC(N6CCN(C)CC6)CC5)cnc34)ccnc2cc1F
inactive: [1]; 10 µM 0 | [2]; 10 µM 0 | [3]; 10 µM 0 | [4]; 10 µM 0 | [5]; 10 µM 0 | [6]; 10 µM 0 | [7]; 10 µM 0 | [8]; 10 µM 0 | [9]; 10 µM 0 | [10]; 10 µM 0

CNC(=O)c1ccccc1Nc1cc(Nc2ccc(N3CCOCC3)cc2OC)ncc1C(F)(F)F [PND-1186 (hydrochloride)]
inactive: [1]; 10 µM 0 | [2]; 10 µM 0 | [3]; 10 µM 0 | [4]; 10 µM 0 | [5]; 10 µM 0 | [6]; 10 µM 0 | [7]; 10 µM 0 | [8]; 10 µM 0 | [9]; 10 µM 0 | [10]; 10 µM 0

CNC(=O)c1ccccc1Nc1cc(Nc2ccc(N3CCOCC3)cc2OC)ncc1C(F)(F)F
inactive: [1]; 10 µM 0 | [2]; 10 µM 0 | [3]; 10 µM 0 | [4]; 10 µM 0 | [5]; 10 µM 0 | [6]; 10 µM 0 | [7]; 10 µM 0 | [8]; 10 µM 0 | [9]; 10 µM 0 | [10]; 10 µM 0

N#CCC1(n2cc(-c3ncnc4[nH]ccc34)cn2)CN(C2CCN(C(=O)c3ccnc(C(F)(F)F)c3F)CC2)C1 [Itacitinib]
inactive: [1]; 10 µM 0 | [2]; 10 µM 0 | [3]; 10 µM 0 | [4]; 10 µM 0 | [5]; 10 µM 0 | [6]; 10 µM 0 | [7]; 10 µM 0 | [8]; 10 µM 0 | [9]; 10 µM 0 | [10]; 10 µM 0

COc1cc2nccc(Nc3cc(OC)c(OC)c(OC)c3)c2cc1OC [GAK inhibitor 49]
inactive: [1]; 10 µM 0 | [2]; 10 µM 0 | [3]; 10 µM 0 | [4]; 10 µM 0 | [5]; 10 µM 0 | [6]; 10 µM 0 | [7]; 10 µM 0 | [8]; 10 µM 0 | [9]; 10 µM 0 | [10]; 10 µM 0

CNc1ncc2cc(-c3ccc(-c4cccc(C)n4)cc3Cl)c(=O)n(C[C@H]3OC[C@H](N)CO3)c2n1 [G-5555 (hydrochloride)]
inactive: [1]; 10 µM 0 | [2]; 10 µM 0 | [3]; 10 µM 0 | [4]; 10 µM 0 | [5]; 10 µM 0 | [6]; 10 µM 0 | [7]; 10 µM 0 | [8]; 10 µM 0 | [9]; 10 µM 0 | [10]; 10 µM 0

C=CC(=O)Nc1cc(Nc2nccc(-c3cn(C)c4ccccc34)n2)c(OC)cc1N(C)CCN(C)C [Osimertinib (dimesylate)]
inactive: [1]; 2.5 µM 0 | [2]; 2.5 µM 0 | [3]; 2.5 µM 0 | [4]; 2.5 µM 0 | [5]; 2.5 µM 0 | [6]; 2.5 µM 0 | [7]; 2.5 µM 0 | [8]; 2.5 µM 0 | [9]; 2.5 µM 0 | [10]; 2.5 µM 0

CCc1nc(C(N)=O)c(Nc2ccc(N3CCC(N4CCN(C)CC4)CC3)c(OC)c2)nc1NC1CCOCC1 [Gilteritinib hemifumarate]
inactive: [1]; 2 µM 0 | [2]; 2 µM 0 | [3]; 2 µM 0 | [4]; 2 µM 0 | [5]; 2 µM 0 | [6]; 2 µM 0 | [7]; 2 µM 0 | [8]; 2 µM 0 | [9]; 2 µM 0 | [10]; 2 µM 0

CNC(=O)c1ccc(Nc2ncc(C(F)(F)F)c(NCc3nccnc3N(C)S(C)(=O)=O)n2)cc1 [Defactinib]
inactive: [1]; 10 µM 0 | [2]; 10 µM 0 | [3]; 10 µM 0 | [4]; 10 µM 0 | [5]; 10 µM 0 | [6]; 10 µM 0 | [7]; 10 µM 0 | [8]; 10 µM 0 | [9]; 10 µM 0 | [10]; 10 µM 0
